Measurements reported in PubChem BioAssay AID1671190 (National Center for Advancing Translational Sciences (NCATS), 2021).
Several values for one entry are separate records, joined by “and”; a condition that tells them apart may be missing. Equal values may be shown once. Screen size: about 580,000 compounds; about 6,100 (1.1%) were called active. The inconclusive results got no clear call from the source; some entries with a clear call stand among them for comparison. The call rests on the fitted dose curve; in most records, active means well fitted inhibition curve with a large enough effect; inconclusive means small, poorly fitted or top-dose-only effect, or another doubt; inactive means no such curve, though single readings can be large or run the other way. Potencies beside an inconclusive call are fits to weak or partial responses and may not hold up.

Sequences of proteins named here, by UniProt entry; tags and fusion partners are left off. A change or cut given only in a name is not applied to a line headed by its entry.
UniProt P18054: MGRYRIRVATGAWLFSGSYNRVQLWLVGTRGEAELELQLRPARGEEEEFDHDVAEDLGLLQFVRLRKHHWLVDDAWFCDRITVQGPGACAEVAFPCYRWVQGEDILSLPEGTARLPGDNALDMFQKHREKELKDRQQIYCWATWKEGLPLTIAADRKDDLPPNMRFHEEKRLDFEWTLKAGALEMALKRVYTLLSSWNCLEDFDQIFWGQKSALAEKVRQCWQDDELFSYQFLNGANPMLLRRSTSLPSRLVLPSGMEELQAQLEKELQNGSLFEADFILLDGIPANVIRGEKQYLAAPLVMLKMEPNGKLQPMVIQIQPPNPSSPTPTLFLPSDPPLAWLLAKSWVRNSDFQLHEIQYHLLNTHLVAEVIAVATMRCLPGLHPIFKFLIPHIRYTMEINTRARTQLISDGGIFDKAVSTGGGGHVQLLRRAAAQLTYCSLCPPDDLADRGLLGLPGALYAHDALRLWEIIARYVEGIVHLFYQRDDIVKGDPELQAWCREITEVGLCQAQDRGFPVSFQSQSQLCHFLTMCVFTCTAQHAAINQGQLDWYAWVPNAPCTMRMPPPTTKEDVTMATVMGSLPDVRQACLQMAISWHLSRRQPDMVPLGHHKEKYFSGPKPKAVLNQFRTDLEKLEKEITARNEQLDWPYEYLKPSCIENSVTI

These compounds were tested against Polyunsaturated fatty acid lipoxygenase ALOX12 (Homo sapiens) (UniProt P18054) (assay: Primary qHTS assay for inhibitors of human arachidonate 12S-lipoxygenase (ALOX12): Round 2). Settings: purified 12hLO, xylenol orange hydroperoxide absorbance; activity change, negative = inhibition: at 108 µM (top of the series) unless noted.
Summary of the method: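 Purified human 12hLO at 150 nM in 25 mM Hepes, 0.01% Triton X-100, pH 7.0, preincubated 15 min at room temperature with compound. Reaction started with 40 uM arachidonic acid, 30 min at room temperature. Hydroperoxide measured by Fe-xylenol orange, 573/405 nm absorbance ratio.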
On the % scale 0 is the no-effect control and ±100 the full control effect; potency means the concentration at half of the fitted maximal effect.

Compound | Potency | activity change, negative = inhibition
CNC(=O)/C(C#N)=C/c1cn(CC(=O)NCc2ccco2)c2ccccc12 | inconclusive: 14.1 µM [inhibitor, partial curve, poor fit] | –
CCOC(=O)C1=NN(c2ccccc2)C2C(=O)N(c3ccccc3OC)C(=O)C12 (centres undefined) | inconclusive: 112 µM [inhibitor, single point] | –
CCc1ccc(NC(=O)c2c(CC)noc2C)cc1 | inconclusive: 141 µM [inhibitor, single point] | –
CCCCCCCCCCOC(=O)Cn1c(COc2cccc(C)c2)[n+](C)c2ccccc21 | inconclusive: 100 µM [inhibitor, single point] | –
COCCn1ncc(N2CCCC(CC(=O)NCc3ccccc3OC)C2)cc1=O (centres undefined) | inconclusive: 14.1 µM [inhibitor, partial curve, poor fit] | –
COc1ccc(N(CC(=O)NC2CCCCCC2)S(=O)(=O)c2c(C)nn(C)c2C)cc1 | inconclusive: 89.1 µM [inhibitor, partial curve, poor fit] | –
COCC(=O)N1CCC(Oc2nccnc2N2CCc3ccccc32)C1 (centres undefined) | – | inactive: 29%
COc1ccc(NC(=O)c2ccc(Br)o2)cc1NC(=O)c1cccc(C)c1 | – | inactive: -19.2%
O=[N+]([O-])c1cccc(C2Nc3cccc4cccc(c34)N2)c1 | inconclusive: 10 µM [inhibitor, partial curve, poor fit] | –
COc1ccc(C(c2c(C)n(C)n(-c3ccccc3)c2=O)c2c(C)n(C)n(-c3ccccc3)c2=O)cc1 | – | inconclusive: -30.4% [inhibitor]
CC(=O)NC1(C)CCN(Cc2cccc(-c3ccc(C(=O)c4ccccc4)cc3)c2)C1 (centres undefined) | active: 39.8 µM | –
Cc1ccc2c(n1)sc1c(-c3ccc(Br)cc3)c(C#N)c(N)nc12 | inconclusive: 3.98 µM [inhibitor, full curve, poor fit] | –
COc1ccc(/C=C2\SC(=S)N(CCCC(=O)N3CCOCC3)C2=O)cc1 | active: 44.7 µM | –
Cc1ccc(C(=O)NCC(=O)NCCc2c[nH]c3ccccc23)cc1C | inconclusive: 7.94 µM [inhibitor, full curve] | –
CCCCC(c1nnnn1Cc1ccco1)N1CCN(c2nc3ccccc3s2)CC1 (centres undefined) | inconclusive: 56.2 µM [inhibitor, partial curve, poor fit] | –
O=C(CC1(O)C(=O)N(CN2CCOCC2)c2ccccc21)c1ccc(F)cc1 (centres undefined) | – | inactive: 24.7%
O=C(C1CCN(c2nc(-c3ccccc3)nc3c2CCC3)CC1)N1CCCNCC1 | – | inactive: 18.9%
CCSc1ccccc1C(=O)Nc1cccnc1 | inconclusive: 63.1 µM [inhibitor, partial curve, poor fit] | –
Cc1ccc2c(ccc(=S)n2C)c1 | inconclusive: 44.7 µM [inhibitor, partial curve, poor fit] | –
O=C(Nc1ccc2c3c(cccc13)CC2)C1CC1(Cl)Cl (centres undefined) | inconclusive: 50.1 µM [inhibitor, partial curve, poor fit] | –

Compound | Potency | activity change, negative = inhibition
Cc1ccccc1N1C(=O)C(Oc2ccc(Cl)cc2)C1CNCCCOC(C)C (centres undefined) | inconclusive: 79.4 µM [inhibitor, partial curve, poor fit] | –
CCCCn1c(N)c(N(CCOC)C(=O)c2cc(-c3ccc(OC)cc3)nc3ccccc23)c(=O)[nH]c1=O | inconclusive: 50.1 µM [inhibitor, partial curve, poor fit] | –
CSc1ncccc1C(=O)OCC(=O)C(C)(C)C | inconclusive: 0.501 µM [inhibitor, full curve, poor fit] | –
Cc1ccc(NC(=O)N2CCc3[nH]c4ccc(F)cc4c3C2)cc1 | inconclusive: 50.1 µM [inhibitor, partial curve, poor fit] | –
Cc1ccc(CN2CCC(CNC(=O)c3cc4ccc5cccnc5c4[nH]3)CC2)cc1 | inconclusive: 56.2 µM [inhibitor, partial curve, poor fit] | –
CC(C)Sc1nc2c(c(=O)[nH]c(=O)n2C)n1Cc1ccc(Cl)cc1 | inconclusive: 15.8 µM [inhibitor, full curve, poor fit] and inconclusive: 39.8 µM [inhibitor, partial curve, poor fit] | –
O=C(COc1ccccc1F)N1CCCc2ccccc21 | – | inactive: -12%
O=C(C[C@H]1C[C@H](C(=O)N2CCOCC2)[C@@]2(CCC3CCCC3)c3[nH]c4cc(-c5ccco5)ccc4c3CCN2C1=O)NCCCn1ccnc1 | inconclusive: 112 µM [inhibitor, single point] | –
CC(=O)c1cccc(NC(=O)c2cc(-c3ccc(C)cc3)on2)c1 | inconclusive: 20 µM [inhibitor, full curve, poor fit] | –
Cc1nn(Cc2cccc(F)c2)c(C)c1NC(=O)Nc1ccc2c(c1)OCO2 | inconclusive: 126 µM [inhibitor, partial curve, poor fit] | –
COCCNCCOc1ccccc1-c1ccccc1 | inconclusive: 0.891 µM [inhibitor, full curve] | –
COc1cc(/C=N/n2nnnc2N)cc(Cl)c1OC | inconclusive: 28.2 µM [inhibitor, partial curve, poor fit] | –
CCOc1ccc(-c2[nH]ncc2-c2ccccc2)c(O)c1 | inconclusive: 50.1 µM [inhibitor, partial curve, poor fit] and inconclusive: 50.1 µM [inhibitor, single point] | –
CCN(CC)S(=O)(=O)c1cccc(NC(=O)c2cncc(Br)c2)c1 | – | inactive: 338%
N#Cc1ccc(Oc2ccc(-c3nc4ccccc4nc3-c3ccccc3)cc2)cc1C#N | – | inactive: -1.32%
CC(=O)Nc1ccc(-c2c(C(C)C)nn(-c3cccc(F)c3)c2OC(C)=O)cc1 | inconclusive: 7.94 µM [inhibitor, full curve, poor fit] | –
Cn1c(=O)c2c(-c3ccccc3)n(-c3ccccc3F)cc2n(C)c1=O | inconclusive: 141 µM [inhibitor, single point] | –
COCCn1c(NC(=S)NC(=O)C2CC2)cc(=O)[nH]c1=O | inconclusive: 44.7 µM [inhibitor, partial curve, poor fit] | –
CC(C)[C@H](NC(=O)c1ccc(Cl)cc1)C(=O)OCC(=O)N1CCN(c2ccccc2)CC1 | inconclusive: 63.1 µM [inhibitor, partial curve, poor fit] | –
O=C(Nc1ccc2nc(N3CCN(c4cccc(Cl)c4)CC3)cc(C(=O)O)c2c1)c1ccccc1 | inconclusive: 14.1 µM [inhibitor, full curve, poor fit] | –

Compound | Potency | activity change, negative = inhibition
O=C(c1ccc(COc2c(F)c(F)c(F)c(F)c2F)o1)N1CCN(Cc2ccc3c(c2)OCO3)CC1 | inconclusive: 50.1 µM [inhibitor, partial curve, poor fit] | –
Cc1c(-c2ccccc2)c(=O)oc2cc(OS(C)(=O)=O)ccc12 | inconclusive: 89.1 µM [inhibitor, single point] | –
CS(=O)(=O)Oc1ccc2c(NC(N)=O)c(C(=O)c3ccc(Cl)cc3Cl)oc2c1 | – | inactive: -18.1% [at 57.4 µM]
CCn1c(-c2csc(C(C)C)c2)n[nH]c1=S | inconclusive: 70.8 µM [inhibitor, partial curve, poor fit] | –
COc1ccccc1NC(=O)c1ccccc1S(=O)(=O)c1ccccc1[N+](=O)[O-] | – | inactive: -16.7%
CCOCCCNC(=S)NCCCNc1nc2c(C)cc(C)cc2cc1C#N | inconclusive: 44.7 µM [inhibitor, partial curve, poor fit] | –
COc1ccc(NC(=O)CCN2CCN(CCO)CC2)c(OC)c1 | inconclusive: 4.47 µM [inhibitor, full curve] | –
CNc1cc([N+](=O)[O-])ccc1N/C=C/C(=O)c1cccs1 | inconclusive: 28.2 µM [inhibitor, partial curve, poor fit] | –
C[C@@H]1CCCCO[C@@H](CN(C)C(=O)Nc2ccc(C(F)(F)F)cc2)[C@@H](C)CN([C@H](C)CO)C(=O)c2cc(NS(=O)(=O)c3ccc(Cl)cc3)ccc2O1 | inconclusive: 158 µM [inhibitor, partial curve, poor fit] | –
Cc1cc(C(=O)CSc2n[nH]c(N)n2)c(C)n1-c1cccc(F)c1 | – | inactive: -9%
CN(C)S(=O)(=O)c1cccc(NC(=O)c2ccc3c(c2)S(=O)(=O)N=C2CCCCCN23)c1 | inconclusive: 79.4 µM [inhibitor, single point] | –
O=C(CCc1cc(Cl)no1)N(CCS(=O)(=O)N1CCCC1)Cc1ccncc1 | inconclusive: 0.501 µM [inhibitor, full curve, poor fit] | –
Fc1ccc(CNC(=S)Nc2cccc(Cl)c2)cc1 | inconclusive: 50.1 µM [inhibitor, partial curve, poor fit] | –
Cc1cccn2c(CN3CCCN(C=O)CC3)c(C(=O)N(C)CCc3ccccc3)nc12 | inconclusive: 44.7 µM [inhibitor, partial curve, poor fit] | –
CCc1nc2c(OCc3cc(Cl)cc(Cl)c3)cccn2c1N(C)C(=O)c1ccc(C)cc1 | inconclusive: 20 µM [inhibitor, partial curve, poor fit] | –
C#CCCC(=O)N(Cc1cccc(C)c1)Cc1ccccc1OC | – | inactive: -1.23%
COC(=O)CN1C(=S)N(c2ccc(Cl)cc2)C(=O)C1CC(=O)Nc1ccccc1 (centres undefined) | inconclusive: 70.8 µM [inhibitor, partial curve, poor fit] | –
O[C@@H]1CC(CNCc2nccs2)(COc2cccnc2)C[C@@H]1O (some centres undefined) | inconclusive: 22.4 µM [inhibitor, full curve] | –
COc1ccc(CN(C(=O)COC(=O)c2n[nH]c(=O)c3ccccc23)C2CC2)cc1 | inconclusive: 31.6 µM [inhibitor, partial curve, poor fit] | –

Single records, from the list above:
C[C@@H]1CCCCO[C@@H](CN(C)C(=O)Nc2ccc(C(F)(F)F)cc2)[C@@H](C)CN([C@H](C)CO)C(=O)c2cc(NS(=O)(=O)c3ccc(Cl)cc3)ccc2O1 in the list: Potency: inconclusive: 158 µM [inhibitor, partial curve, poor fit]
COc1ccc(NC(=O)CCN2CCN(CCO)CC2)c(OC)c1 in the list: Potency: inconclusive: 4.47 µM [inhibitor, full curve]
